Test results published in PubChem BioAssay AID504327 (National Center for Advancing Translational Sciences (NCATS), 2011).
Screen size: about 390,000 compounds; about 820 (0.21%) were called active. The inconclusive results got no clear call from the source; some entries with a clear call stand among them for comparison. Calls come from the whole dose curve; as a rule, active = well fitted inhibition curve with a large enough effect; inconclusive = small, poorly fitted or top-dose-only effect, or another doubt; inactive = no such curve, though single readings can be large or run the other way. Potencies beside an inconclusive call are fits to weak or partial responses and may not hold up.

By UniProt entry, the sequences of proteins in these tests, tags left out.
UniProt Q92830, whole entry, looked up: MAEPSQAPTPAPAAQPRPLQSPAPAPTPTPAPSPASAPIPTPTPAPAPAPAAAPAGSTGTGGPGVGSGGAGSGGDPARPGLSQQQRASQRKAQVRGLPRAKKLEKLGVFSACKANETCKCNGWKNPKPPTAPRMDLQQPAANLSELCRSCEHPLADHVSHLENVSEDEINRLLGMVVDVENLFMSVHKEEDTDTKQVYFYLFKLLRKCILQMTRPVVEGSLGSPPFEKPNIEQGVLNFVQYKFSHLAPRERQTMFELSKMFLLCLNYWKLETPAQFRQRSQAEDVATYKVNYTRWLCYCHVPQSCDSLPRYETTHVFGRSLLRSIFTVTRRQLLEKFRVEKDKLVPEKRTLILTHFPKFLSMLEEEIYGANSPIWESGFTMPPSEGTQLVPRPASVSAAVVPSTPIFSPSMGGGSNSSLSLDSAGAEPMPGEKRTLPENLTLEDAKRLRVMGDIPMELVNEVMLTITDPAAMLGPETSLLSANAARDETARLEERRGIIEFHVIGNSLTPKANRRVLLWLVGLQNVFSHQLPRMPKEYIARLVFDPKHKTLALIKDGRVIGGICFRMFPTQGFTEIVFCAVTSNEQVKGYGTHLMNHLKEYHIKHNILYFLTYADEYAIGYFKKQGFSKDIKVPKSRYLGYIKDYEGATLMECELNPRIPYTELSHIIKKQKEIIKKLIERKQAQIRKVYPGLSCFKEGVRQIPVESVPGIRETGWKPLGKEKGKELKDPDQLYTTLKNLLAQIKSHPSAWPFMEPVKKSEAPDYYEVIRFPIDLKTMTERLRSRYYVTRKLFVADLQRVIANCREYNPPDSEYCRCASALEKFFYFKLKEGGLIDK

Target: Histone acetyltransferase KAT2A (Homo sapiens) (UniProt Q92830)
Test: qHTS Assay for Inhibitors of GCN5L2
Conditions: GCN5L2 HAT assay, ThioGlo1 CoA-SH fluorescence; activity change, negative = inhibition: at 58.9 µM (top of the series) unless noted
Summary of the method: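 Compounds, pin-transferred from DMSO stocks, meet 20nM GCN5L2 for 15 min before the reaction begins with H3(1-25) peptide (75uM) and acetyl-CoA (70uM). Thiol-reactive ThioGlo1 reports CoA release over 20 min at room temperature.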
% is set by controls: 0 for no effect and ±100 for the full control effect; potency is the fitted concentration of half-maximal effect.

Structure (SMILES) | Potency | activity change, negative = inhibition
O=C(c1nc2ccccn2c1CN1CCCC(c2nc3ccccc3o2)C1)N1CCCC1 (stereo not drawn) | inconclusive: 39.8 µM [inhibitor, single point] | 
CCN1CCN(C(=O)c2cc(-c3ccco3)nc3ccccc23)CC1 | inconclusive: 25.1 µM [inhibitor, partial curve] | 
C/C(=N\NC(=O)c1cccc(S(=O)(=O)N2CCOCC2)c1)c1ccc(OC(F)F)cc1 | inconclusive: 3.55 µM [inhibitor, single point] | 
COCC(=O)N1CCC(Oc2ccc(C(=O)N3CCCCC3COC)cc2)CC1 (stereo not drawn) | inconclusive: 0.1 µM [inhibitor, full curve, poor fit] | 
CCCCCNC(=O)c1ccc(NS(=O)(=O)c2ccc3[nH]c(=O)[nH]c3c2)cc1 | inconclusive: 10 µM [inhibitor, full curve, poor fit] | 
CCOC(=O)N1CCN(C(=O)c2ccc3c(=O)n(CCc4ccccc4)c(=O)[nH]c3c2)CC1 |  | inactive: -1.01%
Cc1cc2ncn(-c3ncnc4scc(-c5ccccc5)c34)c2cc1C |  | inactive: -17.3%
Cc1cc(=O)n2nc(N3CCCC(C(=O)NCCCN4CC(C)CC(C)C4)C3)sc2n1 (stereo not drawn) | inconclusive: 0.631 µM [inhibitor, full curve, poor fit] | 
CCCSCCCNC(=O)c1ccccc1NC(=O)C1=CSCCO1 | inconclusive: 0.631 µM [inhibitor, full curve, poor fit] | 
Cc1cccc(-n2nnc(C(=O)NCc3ccco3)c2N)c1 | inconclusive: 7.08 µM [inhibitor, single point] | 
Cc1ccc(NC(=O)CSc2nccn2Cc2ccco2)c(C)c1 | inconclusive: 3.98 µM [inhibitor, partial curve, poor fit] | 
Cc1ccc(-c2cc(C(=O)OCC(=O)N(C)C3CCS(=O)(=O)C3)c3ccccc3n2)o1 (stereo not drawn) | inconclusive: 39.8 µM [inhibitor, single point] | 
O=[N+]([O-])c1c(NCCCO)cc(Sc2nc3ccccc3s2)c2nonc12 | inconclusive: 39.8 µM [inhibitor, single point] | 
N#CCNC(=O)C1CC(=O)N(CCc2ccc(F)cc2)C1 (stereo not drawn) | inconclusive: 39.8 µM [inhibitor, single point] | 
CCC(C)N(C(=O)CSc1nnc(-c2cccs2)n1C1CC1)C1CCS(=O)(=O)C1 (stereo not drawn) | inconclusive: 39.8 µM [inhibitor, single point] | 
Cc1ccc(/C=C2/SC(=S)N(C3CCCCC3)C2=O)o1 |  | inactive: -5.33%
COc1ccc(CN(CCN(C)C)c2ncccn2)cc1 | inconclusive: 39.8 µM [inhibitor, partial curve] | 
COC(=O)c1[nH]c2cc(OC)ccc2c1NC(=O)c1ccc2c(c1)OCO2 | inconclusive: 39.8 µM [inhibitor, single point] | 
COc1ccccc1NC(=O)C(=O)N/N=C(\C)CC(=O)Nc1ccc(OCc2ccccc2)cc1 | inconclusive: 3.16 µM [inhibitor, partial curve] | 
C/C=C/c1ccc(OCC(=O)OCc2csc(CC(=O)Nc3ccccc3C)n2)c(OC)c1 | inconclusive: 8.91 µM [inhibitor, single point] | 
COc1cc(C2CC(=O)N3CN(c4ccccc4C)CSC3=C2C#N)cc(OC)c1OC (stereo not drawn) | inconclusive: 22.4 µM [inhibitor, partial curve] | 
O=C(CSc1ncc(-c2ccccc2)[nH]1)Nc1cccc(O)c1 |  | inconclusive: -93.3% [inhibitor] [at 0.501 µM]
COc1ccc2oc(C(=O)OCC(=O)N(C)CC(=O)Nc3ccc(F)cc3)c(C)c2c1 | inconclusive: 15.8 µM [inhibitor, single point] | 

Molecules from the list above that have an aryl methoxy group, in the order listed:
Structure (SMILES) | Potency | activity change, negative = inhibition
COc1ccc(CN(CCN(C)C)c2ncccn2)cc1 | inconclusive: 39.8 µM [inhibitor, partial curve] | 
COC(=O)c1[nH]c2cc(OC)ccc2c1NC(=O)c1ccc2c(c1)OCO2 | inconclusive: 39.8 µM [inhibitor, single point] | 
COc1ccccc1NC(=O)C(=O)N/N=C(\C)CC(=O)Nc1ccc(OCc2ccccc2)cc1 | inconclusive: 3.16 µM [inhibitor, partial curve] | 
C/C=C/c1ccc(OCC(=O)OCc2csc(CC(=O)Nc3ccccc3C)n2)c(OC)c1 | inconclusive: 8.91 µM [inhibitor, single point] | 
COc1cc(C2CC(=O)N3CN(c4ccccc4C)CSC3=C2C#N)cc(OC)c1OC (stereo not drawn) | inconclusive: 22.4 µM [inhibitor, partial curve] | 
COc1ccc2oc(C(=O)OCC(=O)N(C)CC(=O)Nc3ccc(F)cc3)c(C)c2c1 | inconclusive: 15.8 µM [inhibitor, single point] | 

The results go on.

Structure (SMILES) | Potency | activity change, negative = inhibition
Cc1ccc(C)c(NC(=S)NCC(c2ccccc2)N(C)C)c1 (stereo not drawn) |  | inactive: -3.66%
Cc1cc(C)c(Nc2cc(S(=O)(=O)O)c(N)c3c2C(=O)c2ccccc2C3=O)c(C)c1 | inconclusive: 39.8 µM [inhibitor, single point] | 
COc1ccc(OCC(Cn2cnc3ccccc32)OC(C)=O)cc1 (stereo not drawn) | inconclusive: 39.8 µM [inhibitor, single point] | 
CCOC(=O)N1CCc2c(sc(NCc3cccs3)c2C(=O)Nc2cc(OC)ccc2OC)C1 | inconclusive: 39.8 µM [inhibitor, single point] | 
CCC(O)C1CCN(C(=O)c2cc(COc3ccc4ncccc4c3)on2)CC1 (stereo not drawn) |  | inactive: -6.72%
CC(C)(Oc1ccc(Cl)cc1)C(=O)Nc1cccnc1 | inconclusive: 39.8 µM [inhibitor, single point] | 
O=S(=O)(NCC(c1ccco1)N1CCc2ccccc21)c1ccccc1 (stereo not drawn) | inconclusive: 5.01 µM [inhibitor, full curve, poor fit] | 
Cc1ccc2c(c1)c1c(c(=O)n(-c3cccc(Cl)c3)c(=O)n1C)n2C |  | inactive: -0.57%
O=C(CCC1CCN(C(=O)c2ccco2)CC1)NCc1ccc(F)cc1 |  | inactive: -15%
O=C(Nc1ccc2nc(C3CC3)n(Cc3ccccc3)c(=O)c2c1)C1CC1 |  | inactive: -2.26%
CCCS(=O)(=O)N1CCN(C(=O)CCC2CCCC2)CC1 |  | inactive: -14.6%
CC(=O)N(C1=C(Cl)C(=O)c2ccccc2C1=O)C1CCCCC1 | active: 31.6 µM | 
NCCC(O)(P(=O)(O)O)P(=O)(O)O | inconclusive: 25.1 µM [inhibitor, single point] | 
Cc1nn(Cc2c(F)c(F)c(F)c(F)c2F)c(C)c1NC(=O)c1c([N+](=O)[O-])c(C)nn1C |  | inactive: 1.12%
CCCCC(=O)Nc1sc(C(=O)N(CC)CC)c(C)c1C(=O)OC | inconclusive: 39.8 µM [inhibitor, single point] | 
Cc1ccccc1CNC(=O)C(=O)NCC1OCCCN1S(=O)(=O)c1cccs1 (stereo not drawn) | inconclusive: 1 µM [inhibitor, full curve, poor fit] | 
COC(=O)CC1COc2ccccc2N1C(=O)c1cccc(Cl)c1 (stereo not drawn) | inconclusive: 0.562 µM [inhibitor, single point] | 
NC(=O)c1c(NC(=O)c2cccc(N3C(=O)CCC3=O)c2)sc2c1CCCCC2 | inconclusive: 2 µM [inhibitor, full curve] | 
COc1ccc(NC(=S)N(CCc2nc3cc(C)c(C)cc3[nH]2)Cc2cccnc2)cc1 | inconclusive: 35.5 µM [inhibitor, single point] | 
CCCCNC(=S)NNC(=O)CCn1nc(C)c(Br)c1C | inconclusive: 39.8 µM [inhibitor, single point] | 
CN1CCN(c2ncc3nc(-c4ccc(Cl)cc4)c(=O)n(CCC#N)c3n2)CC1 | inconclusive: 31.6 µM [inhibitor, single point] | 
COc1cccc(-c2cc(C(=O)NCc3ccccc3)[nH]n2)c1 |  | inactive: -1.04%
CSc1ccccc1-c1nnc(-c2ccc(C)cc2)o1 | inconclusive: 39.8 µM [inhibitor, single point] | 

Structure (SMILES) | Potency | activity change, negative = inhibition
O=C(Nc1ccc(N2CCCCCC2)cc1)c1ccccc1Cl |  | inactive: -7.78%
O=C(Nc1ccc2c(c1)CCC2)C1COc2ccccc2O1 (stereo not drawn) | inconclusive: 35.5 µM [inhibitor, single point] | 
Cc1cc(C)c2c(=O)n(CC(=O)Nc3ccc(Br)c(C)c3)sc2n1 | inconclusive: 22.4 µM [inhibitor, partial curve] | 
CC1=NN(c2ccccc2)C(=O)/C1=C/c1cc2cc(C)ccc2nc1N1CCCCC1 | inconclusive: 6.31 µM [inhibitor, single point] | 
CCc1nnc(NS(=O)(=O)c2ccc(NC(=S)NC(=O)/C=C/c3ccc([N+](=O)[O-])cc3)cc2)s1 | inconclusive: 10 µM [inhibitor, partial curve, poor fit] | 
Cc1cc(Br)ccc1NC(=O)c1ccc(-n2cncn2)c([N+](=O)[O-])c1 |  | inactive: -5.1%
COc1ccc(-n2c(C)cc(C(=O)CN3C(=O)c4ccccc4C3=O)c2C)cc1 | inconclusive: 35.5 µM [inhibitor, single point] | 
C=C[C@](C)(O)CCC1C(=C)CC(OC(C)=O)C2C(C)(C)CCCC12C (stereo partly drawn) |  | inactive: -19.5%
COc1ccc2[nH]c3c(=S)nc[nH]c3c2c1 | inconclusive: 0.282 µM [inhibitor, single point] | 
CNS(=O)(=O)c1ccc2nc(NC(=O)c3ccc(N4C(=O)CCC4=O)cc3)sc2c1 | inconclusive: 25.1 µM [inhibitor, single point] | 
O=C1COc2ccc(S(=O)(=O)CCC(=O)NC3CCCCC3)cc2N1 |  | inactive: -0.619%
CN(Cc1ccccc1F)C(=O)COc1ccc(C(=O)c2ccccc2)cc1 |  | inactive: -7.44%
CC(C)(C)NC(=O)C(c1ccc(F)cc1)N(Cc1cccs1)C(=O)c1ccc(CN2CCOCC2)o1 (stereo not drawn) | inconclusive: 2.51 µM [inhibitor, single point] | 
Cc1cc(C(=O)NCc2ccco2)c2ccccc2n1 | inconclusive: 8.91 µM [inhibitor, single point] | 
N#CC1=C2C=CC=CN2CC1=O |  | inactive: -8.7%
COc1cc(C(=O)Nc2sc3c(c2C(=O)NCc2ccco2)CCCC3)cc(OC)c1OC |  | inactive: -14.1% [at 0.501 µM]
O=C(C[n+]1cc(Br)cc(Br)c1)c1ccc(-c2ccccc2)cc1 | inconclusive: 0.794 µM [inhibitor, full curve, poor fit] | 
O=C(O)CCS(=O)(=O)c1cccc2cccnc12 | inconclusive: 28.2 µM [inhibitor, single point] | 
O=C(Oc1ccccc1)N1CCC2(CCCN(c3ncccn3)C2)CC1 |  | inactive: -8.18%
Cc1c(CCC(=O)NCCc2ccccc2F)c(=O)oc2cc(O)ccc12 |  | inactive: -22.3%
COc1c(Cl)cc(Cl)cc1C(=O)Nc1ccc(NC(=O)c2cccs2)cc1 |  | inactive: -4.06%
COC(=O)[C@@H](N)CS | inconclusive: 39.8 µM [inhibitor, single point] | 
